The other results are listed elsewhere or left out.
What was measured:
Assay in all cases: log2 fold change, soluble protein after heating vs DMSO (PISA); higher = thermal stabilisation; K562 lysate, 10 uM; active = over 0.2 and 3.5 SD of the protein, either way, in both replicates (recomputed)
erlotinib = compound: C#Cc1cccc(Nc2ncnc3cc(OCCOC)c(OCCOC)cc23)c1 [erlotinib]
In short: (§1)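 Dounce homogenisation of K562 pellets in PBS pH 7.4 with 1 mM MgCl2 produced a crude extract, used at 1 mg/mL protein. Exposure to 10 μM compound lasted 30 min, and aliquots were then heated for 3 min across 48°C-58°C, pooled and brought to 0.5% NP-40 at 4°C. The supernatant after 21,000xg for 90 min was quantified by TMTpro 16plex LC-MS/MS with channel sums equalised. Duplicate values are given as log-two fold change in thermal stability relative to solvent controls.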

Sequences of proteins named here, by UniProt entry; tags and fusion partners are left off. A change or cut given only in a name is not applied to a line headed by its entry.
UniProt Q8IWJ2: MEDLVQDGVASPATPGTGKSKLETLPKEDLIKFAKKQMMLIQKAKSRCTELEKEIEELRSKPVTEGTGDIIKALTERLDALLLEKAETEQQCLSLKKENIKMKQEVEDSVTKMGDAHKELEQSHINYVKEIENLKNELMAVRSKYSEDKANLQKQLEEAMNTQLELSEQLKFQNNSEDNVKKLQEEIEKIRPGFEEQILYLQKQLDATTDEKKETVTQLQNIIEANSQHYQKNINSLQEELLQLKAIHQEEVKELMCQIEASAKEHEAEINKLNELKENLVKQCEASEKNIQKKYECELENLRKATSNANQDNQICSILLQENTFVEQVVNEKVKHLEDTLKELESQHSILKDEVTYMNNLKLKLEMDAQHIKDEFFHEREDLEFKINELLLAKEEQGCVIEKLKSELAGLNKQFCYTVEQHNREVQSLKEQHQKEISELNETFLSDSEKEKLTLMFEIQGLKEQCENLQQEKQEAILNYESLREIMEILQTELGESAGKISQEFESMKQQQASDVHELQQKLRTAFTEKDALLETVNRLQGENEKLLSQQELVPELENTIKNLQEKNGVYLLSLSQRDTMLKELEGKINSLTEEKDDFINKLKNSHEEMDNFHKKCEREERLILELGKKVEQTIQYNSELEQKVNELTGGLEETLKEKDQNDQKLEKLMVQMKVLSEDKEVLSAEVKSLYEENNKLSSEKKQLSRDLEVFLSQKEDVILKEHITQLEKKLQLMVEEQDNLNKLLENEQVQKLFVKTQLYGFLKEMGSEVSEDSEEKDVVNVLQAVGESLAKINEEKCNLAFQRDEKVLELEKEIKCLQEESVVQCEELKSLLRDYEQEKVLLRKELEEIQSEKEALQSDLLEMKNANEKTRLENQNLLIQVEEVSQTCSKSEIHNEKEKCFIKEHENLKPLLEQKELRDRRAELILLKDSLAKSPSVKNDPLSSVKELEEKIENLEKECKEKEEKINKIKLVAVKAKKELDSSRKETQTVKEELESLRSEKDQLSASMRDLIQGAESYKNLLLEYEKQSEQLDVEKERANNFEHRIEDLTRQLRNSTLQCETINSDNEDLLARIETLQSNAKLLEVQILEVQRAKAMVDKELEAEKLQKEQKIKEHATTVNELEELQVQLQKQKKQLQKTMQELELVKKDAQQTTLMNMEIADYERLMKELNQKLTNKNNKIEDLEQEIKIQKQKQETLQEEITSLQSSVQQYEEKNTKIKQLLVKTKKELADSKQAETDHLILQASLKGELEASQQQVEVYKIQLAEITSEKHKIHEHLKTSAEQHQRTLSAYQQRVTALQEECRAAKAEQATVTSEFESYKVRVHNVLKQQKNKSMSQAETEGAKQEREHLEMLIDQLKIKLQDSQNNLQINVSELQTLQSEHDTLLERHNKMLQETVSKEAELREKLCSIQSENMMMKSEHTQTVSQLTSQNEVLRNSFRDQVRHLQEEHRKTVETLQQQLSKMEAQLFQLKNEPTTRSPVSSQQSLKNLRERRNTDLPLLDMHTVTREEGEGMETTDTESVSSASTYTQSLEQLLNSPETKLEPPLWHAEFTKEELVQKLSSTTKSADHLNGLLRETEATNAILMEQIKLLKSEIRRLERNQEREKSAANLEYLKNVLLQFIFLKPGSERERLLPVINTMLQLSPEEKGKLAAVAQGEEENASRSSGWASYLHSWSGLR
UniProt Q96AE4: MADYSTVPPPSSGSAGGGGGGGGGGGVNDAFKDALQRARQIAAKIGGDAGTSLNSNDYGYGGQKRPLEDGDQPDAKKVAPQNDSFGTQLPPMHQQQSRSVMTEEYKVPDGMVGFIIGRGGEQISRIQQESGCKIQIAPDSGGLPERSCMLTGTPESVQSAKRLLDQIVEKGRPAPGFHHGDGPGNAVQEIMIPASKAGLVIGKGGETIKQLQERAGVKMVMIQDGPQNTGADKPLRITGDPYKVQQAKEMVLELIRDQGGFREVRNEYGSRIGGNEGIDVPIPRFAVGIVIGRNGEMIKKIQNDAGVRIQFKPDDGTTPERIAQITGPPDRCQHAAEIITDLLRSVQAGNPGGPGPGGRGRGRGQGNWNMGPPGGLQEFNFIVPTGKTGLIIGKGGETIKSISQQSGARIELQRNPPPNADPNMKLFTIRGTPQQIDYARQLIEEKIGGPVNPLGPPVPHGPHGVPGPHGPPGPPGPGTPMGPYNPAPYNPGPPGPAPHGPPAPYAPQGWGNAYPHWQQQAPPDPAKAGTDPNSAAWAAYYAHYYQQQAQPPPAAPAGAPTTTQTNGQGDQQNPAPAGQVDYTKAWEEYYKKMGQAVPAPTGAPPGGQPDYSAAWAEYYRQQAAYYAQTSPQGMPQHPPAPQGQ
UniProt Q13069: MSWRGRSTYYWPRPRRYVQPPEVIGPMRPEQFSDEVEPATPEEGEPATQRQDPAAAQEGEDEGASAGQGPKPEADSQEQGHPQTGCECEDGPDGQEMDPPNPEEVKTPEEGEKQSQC
UniProt Q9UQC2, whole entry, looked up: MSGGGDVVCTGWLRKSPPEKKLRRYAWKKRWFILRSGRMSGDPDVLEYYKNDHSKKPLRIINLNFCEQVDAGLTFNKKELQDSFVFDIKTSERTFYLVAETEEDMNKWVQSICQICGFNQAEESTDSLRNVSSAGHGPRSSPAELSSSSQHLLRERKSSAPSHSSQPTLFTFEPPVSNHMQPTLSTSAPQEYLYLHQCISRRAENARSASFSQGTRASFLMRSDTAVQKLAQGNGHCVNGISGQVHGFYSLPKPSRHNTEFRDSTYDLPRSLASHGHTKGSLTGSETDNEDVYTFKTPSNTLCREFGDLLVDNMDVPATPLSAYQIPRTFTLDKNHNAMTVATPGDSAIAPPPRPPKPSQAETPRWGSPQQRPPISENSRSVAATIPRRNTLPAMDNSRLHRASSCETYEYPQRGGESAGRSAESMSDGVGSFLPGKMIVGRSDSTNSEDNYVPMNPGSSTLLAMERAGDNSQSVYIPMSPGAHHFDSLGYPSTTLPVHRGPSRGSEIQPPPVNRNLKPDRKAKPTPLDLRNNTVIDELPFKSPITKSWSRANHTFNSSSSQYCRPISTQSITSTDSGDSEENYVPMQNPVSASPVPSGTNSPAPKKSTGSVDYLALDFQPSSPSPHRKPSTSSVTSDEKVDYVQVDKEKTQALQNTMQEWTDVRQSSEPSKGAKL
UniProt Q10472: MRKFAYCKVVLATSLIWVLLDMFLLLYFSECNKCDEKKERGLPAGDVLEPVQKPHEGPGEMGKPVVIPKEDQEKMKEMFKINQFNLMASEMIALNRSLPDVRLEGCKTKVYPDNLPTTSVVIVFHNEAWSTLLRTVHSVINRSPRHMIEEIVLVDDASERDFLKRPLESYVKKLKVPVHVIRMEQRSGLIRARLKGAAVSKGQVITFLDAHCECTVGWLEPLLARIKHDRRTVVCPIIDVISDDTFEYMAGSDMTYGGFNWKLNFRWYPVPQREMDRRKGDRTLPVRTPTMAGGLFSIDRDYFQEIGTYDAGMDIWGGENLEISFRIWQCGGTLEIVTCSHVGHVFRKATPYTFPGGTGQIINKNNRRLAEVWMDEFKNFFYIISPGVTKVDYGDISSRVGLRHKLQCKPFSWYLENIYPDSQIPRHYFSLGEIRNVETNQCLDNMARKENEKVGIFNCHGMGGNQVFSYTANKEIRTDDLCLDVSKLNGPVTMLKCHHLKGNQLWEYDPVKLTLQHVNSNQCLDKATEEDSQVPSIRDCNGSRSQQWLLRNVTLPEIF
UniProt P41250: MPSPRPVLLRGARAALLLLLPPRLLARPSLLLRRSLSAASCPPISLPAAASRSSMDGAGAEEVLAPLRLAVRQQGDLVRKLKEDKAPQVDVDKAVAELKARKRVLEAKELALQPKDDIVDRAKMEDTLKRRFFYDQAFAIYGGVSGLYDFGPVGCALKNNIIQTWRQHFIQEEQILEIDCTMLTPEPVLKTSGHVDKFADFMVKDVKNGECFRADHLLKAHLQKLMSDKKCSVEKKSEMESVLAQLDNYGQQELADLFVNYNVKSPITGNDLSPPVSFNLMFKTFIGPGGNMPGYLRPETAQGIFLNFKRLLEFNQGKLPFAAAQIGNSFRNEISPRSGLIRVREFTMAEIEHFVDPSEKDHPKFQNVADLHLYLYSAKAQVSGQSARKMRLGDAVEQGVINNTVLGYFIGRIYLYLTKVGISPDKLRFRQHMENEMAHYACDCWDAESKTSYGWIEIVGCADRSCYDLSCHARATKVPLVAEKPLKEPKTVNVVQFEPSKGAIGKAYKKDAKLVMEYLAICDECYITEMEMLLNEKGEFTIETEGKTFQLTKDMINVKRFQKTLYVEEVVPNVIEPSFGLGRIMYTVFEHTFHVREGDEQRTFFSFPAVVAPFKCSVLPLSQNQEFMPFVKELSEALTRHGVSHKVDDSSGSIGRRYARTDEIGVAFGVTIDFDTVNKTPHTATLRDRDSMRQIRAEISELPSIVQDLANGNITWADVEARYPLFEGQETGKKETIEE
UniProt O14772: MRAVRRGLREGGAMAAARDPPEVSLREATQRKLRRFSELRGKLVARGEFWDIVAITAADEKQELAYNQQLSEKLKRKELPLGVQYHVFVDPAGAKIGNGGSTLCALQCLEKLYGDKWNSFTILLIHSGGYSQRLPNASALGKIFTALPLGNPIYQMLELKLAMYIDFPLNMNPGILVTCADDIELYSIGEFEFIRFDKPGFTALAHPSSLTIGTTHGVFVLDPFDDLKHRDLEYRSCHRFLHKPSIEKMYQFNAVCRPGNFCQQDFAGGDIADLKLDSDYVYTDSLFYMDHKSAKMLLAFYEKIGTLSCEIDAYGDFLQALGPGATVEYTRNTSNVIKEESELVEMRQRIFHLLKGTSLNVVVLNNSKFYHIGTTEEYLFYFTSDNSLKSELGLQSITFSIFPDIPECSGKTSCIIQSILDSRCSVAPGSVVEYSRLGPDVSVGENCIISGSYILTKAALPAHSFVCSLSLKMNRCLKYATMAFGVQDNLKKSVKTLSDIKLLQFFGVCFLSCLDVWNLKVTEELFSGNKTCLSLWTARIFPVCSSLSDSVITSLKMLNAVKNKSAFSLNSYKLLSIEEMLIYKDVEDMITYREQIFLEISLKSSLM
UniProt P02794, whole entry, looked up: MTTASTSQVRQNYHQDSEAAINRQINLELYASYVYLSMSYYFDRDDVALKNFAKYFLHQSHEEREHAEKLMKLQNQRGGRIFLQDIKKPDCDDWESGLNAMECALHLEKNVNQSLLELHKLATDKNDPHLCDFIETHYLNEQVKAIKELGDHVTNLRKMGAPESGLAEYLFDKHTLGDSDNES
UniProt Q9H0R8, whole entry, looked up: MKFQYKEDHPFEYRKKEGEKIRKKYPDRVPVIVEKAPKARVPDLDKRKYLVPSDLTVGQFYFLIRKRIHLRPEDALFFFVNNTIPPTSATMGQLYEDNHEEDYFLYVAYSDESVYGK
UniProt Q86YP4: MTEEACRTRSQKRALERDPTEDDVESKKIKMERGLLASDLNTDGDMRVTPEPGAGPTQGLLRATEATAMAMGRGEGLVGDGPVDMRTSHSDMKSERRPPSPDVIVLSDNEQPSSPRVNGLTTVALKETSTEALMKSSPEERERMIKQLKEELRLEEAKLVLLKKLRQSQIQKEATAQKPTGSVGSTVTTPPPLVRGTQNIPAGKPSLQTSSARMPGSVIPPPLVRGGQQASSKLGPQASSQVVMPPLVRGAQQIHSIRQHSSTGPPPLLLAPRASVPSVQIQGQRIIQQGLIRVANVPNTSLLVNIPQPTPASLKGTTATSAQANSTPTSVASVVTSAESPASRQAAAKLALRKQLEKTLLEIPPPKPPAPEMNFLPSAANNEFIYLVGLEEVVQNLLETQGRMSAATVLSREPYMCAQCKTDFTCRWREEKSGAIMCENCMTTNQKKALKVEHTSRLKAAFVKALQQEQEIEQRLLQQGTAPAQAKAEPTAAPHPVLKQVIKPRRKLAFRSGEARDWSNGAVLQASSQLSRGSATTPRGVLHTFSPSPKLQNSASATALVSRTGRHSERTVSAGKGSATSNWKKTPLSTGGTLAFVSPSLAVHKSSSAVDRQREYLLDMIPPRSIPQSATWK
UniProt P50395: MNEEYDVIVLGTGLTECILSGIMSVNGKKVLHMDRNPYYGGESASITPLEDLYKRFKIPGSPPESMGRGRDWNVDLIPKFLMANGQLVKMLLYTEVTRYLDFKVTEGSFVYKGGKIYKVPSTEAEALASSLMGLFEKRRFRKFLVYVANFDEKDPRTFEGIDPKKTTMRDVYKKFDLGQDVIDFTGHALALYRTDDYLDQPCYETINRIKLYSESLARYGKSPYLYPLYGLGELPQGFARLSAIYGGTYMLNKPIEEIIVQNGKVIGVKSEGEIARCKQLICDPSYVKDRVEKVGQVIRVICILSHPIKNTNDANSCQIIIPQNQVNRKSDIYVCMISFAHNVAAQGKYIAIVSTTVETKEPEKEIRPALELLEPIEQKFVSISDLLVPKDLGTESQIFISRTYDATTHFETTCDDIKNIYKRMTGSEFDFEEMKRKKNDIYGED

[1] = compound: C/C(=N\NC(=O)C1=CC(=CC=C1)S(=O)(=O)N2CCOCC2)/C3=C(C=CC(=C3)Cl)O
In short: as §1

[2] = compound: C1=CC(=CC=C1C2=NC3=C(N2)C=C(C=C3)C(=O)N)OC4=CC=C(C=C4)Cl
In short: as §1

[3] = compound: C1=CC2=C(C=CC(=C2)/C=C\3/C(=O)NC(=NCC4=CC=CS4)S3)N=C1
In short: as §1

[4] = compound: C1=CC2=NC=CN=C2C=C1/C=C/3\C(=O)NC(=O)S3
In short: as §1

[5] = compound: C1=CC=C(C=C1)C2=NC(=C(N2)C3=CC=NC=C3)C4=CC(=C(C=C4)Cl)O
In short: as §1

[6] = compound: C1=CC=C2C(=C1)C3=NNC4=CC=CC(=C43)C2=O
In short: as §1

[7] = compound: C1CCN(C1)C(=O)NC2=CC=CC(=C2)NC3=NC=C(C(=N3)NCCC4=CN=CN4)Br
In short: as §1

[8] = compound: C1CN(CCC1(CC2=CC=C(C=C2)Cl)N)C3=NC=NC4=C3C=CN4
In short: as §1

IRAK-1-4 Inhibitor I = compound: C1COCCN1CCN2C3=CC=CC=C3N=C2NC(=O)C4=CC(=CC=C4)[N+](=O)[O-] [IRAK-1-4 Inhibitor I]
In short: as §1

ibrutinib = compound: C=CC(=O)N1CCC[C@@H](n2nc(-c3ccc(Oc4ccccc4)cc3)c3c(N)ncnc32)C1 [ibrutinib]
In short: as §1

[9] = compound: CC(=O)c1cnc2ccc(-c3cc(Cl)c(O)c(Cl)c3)nc2c1N[C@H]1CC[C@H](CN(C)C)CC1
In short: as §1

ralimetinib = compound: CC(C)(C)Cn1c(N)nc2ccc(-c3[nH]c(C(C)(C)C)nc3-c3ccc(F)cc3)nc21 [ralimetinib]
In short: as §1

[10] = compound: CC(C)(O)CC(=O)NCCn1ccc2ncnc(Nc3ccc(Oc4cccc(C(F)(F)F)c4)c(Cl)c3)c21
In short: as §1

[11] = compound: CC(C)C1=C2N=C(C=C(N2N=C1)NCC3=CC=CC=C3)NCCCCCCN
In short: as §1

[12] = compound: CC1=C(C(CC(=O)N1)C2=CC=C(C=C2)C(F)(F)F)C(=O)NC3=C(C=C4C(=C3)C=NN4)F
In short: as §1

[13] = compound: CC1=C(C2=C(C=C1)C(=O)C3=CC=CC=C3N2CCCN)C
In short: as §1

[14] = compound: CC1=C(C=C(C=C1)NC(=O)C2=CC(=CC=C2)C(C)(C)C#N)NC3=CC4=C(C=C3)N=CN(C4=O)C
In short: as §1

[15] = compound: CC1=C(C=C(C=C1)NC(=O)C2=CC(=CC=C2)N(C)C)NC(=O)C3=CC=C(C=C3)O
In short: as §1

[16] = compound: CC1=CC=C(C=C1)SC2=C3C=C(SC3=CN=C2)C(=O)N
In short: as §1

Measured: log2 fold change

GFPT1 (UniProt Q06210)
inactive: erlotinib 0.031 | [1] -0.008 | [2] 0.003 | [3] 0.013 | [4] -0.008 | [5] 0.001 | [6] -0.014 | [7] -0.021 | [8] 0.008 | IRAK-1-4 Inhibitor I 0.006 | ibrutinib 0.014 | [9] -0.014 | ralimetinib 0.002 | [10] -0.024 | [11] 0.022 | [12] -0.015 | [13] 0.012 | [14] 0.009 | [15] 0.014 | [16] 0.01

GCC2 (UniProt Q8IWJ2)
inactive: erlotinib 0.006 | [1] -0.011 | [2] 0.011 | [3] 0.002 | [4] -0.025 | [5] -0.001 | [6] -0.02 | [7] 0 | [8] 0.001 | IRAK-1-4 Inhibitor I -0.004 | ibrutinib 0.023 | [9] -0.014 | ralimetinib 0.008 | [10] 0.01 | [11] 0.013 | [12] -0.014 | [13] -0.018 | [14] 0.031 | [15] -0.001 | [16] -0.008

FUBP1 isoform 2 (UniProt Q96AE4)
inactive: erlotinib -0.012 | [1] 0.02 | [2] 0.024 | [3] -0.008 | [4] 0.007 | [5] -0.002 | [6] 0.006 | [7] 0.023 | [8] 0.018 | IRAK-1-4 Inhibitor I 0.023 | ibrutinib 0.015 | [9] -0.002 | ralimetinib -0.016 | [10] -0.038 | [11] 0.011 | [12] -0.022 | [13] -0.003 | [14] -0.012 | [15] -0.013 | [16] -0.028

GAGE5 (UniProt Q13069)
inactive: erlotinib 0.012 | [1] 0.009 | [2] 0.017 | [3] 0.031 | [4] -0.016 | [5] -0.059 | [6] 0 | [7] 0.012 | [8] 0.098 | IRAK-1-4 Inhibitor I 0.027 | ibrutinib -0.035 | [9] -0.075 | ralimetinib -0.054 | [10] -0.092 | [11] 0.018 | [12] -0.028 | [13] 0.039 | [14] 0.045 | [15] -0.024 | [16] 0.032

GAB2 (UniProt Q9UQC2)
inactive: erlotinib -0.011 | [1] 0.014 | [2] 0.036 | [3] -0.035 | [4] -0.031 | [5] 0.012 | [6] 0.026 | [7] -0.075 | [8] 0.024 | IRAK-1-4 Inhibitor I -0.003 | ibrutinib 0.018 | [9] -0.034 | ralimetinib -0.006 | [10] -0.01 | [11] 0.021 | [12] -0.004 | [13] -0.018 | [14] 0.035 | [15] -0.014 | [16] -0.001

GALNT1 (UniProt Q10472)
inactive: erlotinib -0.044 | [1] -0.044 | [2] 0.008 | [3] 0.019 | [4] -0.002 | [5] -0.007 | [6] -0.103 | [7] -0.056 | [8] -0.006 | IRAK-1-4 Inhibitor I -0.009 | ibrutinib -0.012 | [9] -0.022 | ralimetinib 0.001 | [10] -0.021 | [11] -0.071 | [12] -0.024 | [13] 0.049 | [14] 0.001 | [15] 0.049 | [16] 0.011

GDAP2 (UniProt Q9NXN4)
inactive: erlotinib -0.027 | [1] 0.005 | [2] 0.009 | [3] 0.048 | [4] 0.037 | [5] 0.012 | [6] 0.033 | [7] -0.036 | [8] 0.046 | IRAK-1-4 Inhibitor I -0.035 | ibrutinib -0.039 | [9] 0.016 | ralimetinib -0.007 | [10] 0.036 | [11] -0.039 | [12] 0.021 | [13] 0.032 | [14] 0.018 | [15] 0.025 | [16] -0.026

Two records drawn at random from the list so far, as already listed:
GAGE5 (UniProt Q13069)
inactive: erlotinib 0.012 | [1] 0.009 | [2] 0.017 | [3] 0.031 | [4] -0.016 | [5] -0.059 | [6] 0 | [7] 0.012 | [8] 0.098 | IRAK-1-4 Inhibitor I 0.027 | ibrutinib -0.035 | [9] -0.075 | ralimetinib -0.054 | [10] -0.092 | [11] 0.018 | [12] -0.028 | [13] 0.039 | [14] 0.045 | [15] -0.024 | [16] 0.032

GDAP2 (UniProt Q9NXN4)
inactive: erlotinib -0.027 | [1] 0.005 | [2] 0.009 | [3] 0.048 | [4] 0.037 | [5] 0.012 | [6] 0.033 | [7] -0.036 | [8] 0.046 | IRAK-1-4 Inhibitor I -0.035 | ibrutinib -0.039 | [9] 0.016 | ralimetinib -0.007 | [10] 0.036 | [11] -0.039 | [12] 0.021 | [13] 0.032 | [14] 0.018 | [15] 0.025 | [16] -0.026

Later entries.

GARS1 (UniProt P41250)
inactive: erlotinib 0.006 | [1] 0.016 | [2] 0.012 | [3] -0.009 | [4] 0.005 | [5] 0.013 | [6] 0.016 | [7] 0.01 | [8] -0.01 | IRAK-1-4 Inhibitor I 0.015 | ibrutinib -0.001 | [9] 0.024 | ralimetinib -0.022 | [10] -0.014 | [11] 0.006 | [12] -0.049 | [13] -0.001 | [14] -0.014 | [15] -0.001 | [16] -0.001

GCLC (UniProt P48506)
inactive: erlotinib -0.014 | [1] -0.027 | [2] 0.021 | [3] 0.038 | [4] -0.006 | [5] -0.01 | [6] -0.045 | [7] 0 | [8] 0.005 | IRAK-1-4 Inhibitor I 0.015 | ibrutinib -0.006 | [9] 0.014 | ralimetinib -0.008 | [10] -0.018 | [11] -0.007 | [12] -0.022 | [13] 0.004 | [14] -0.008 | [15] 0.026 | [16] 0.007

FPGT (UniProt O14772)
inactive: erlotinib 0.031 | [1] -0.005 | [2] -0.003 | [3] 0.011 | [4] 0.023 | [5] -0.002 | [6] -0.108 | [7] 0.006 | [8] -0.013 | IRAK-1-4 Inhibitor I 0.023 | ibrutinib -0.016 | [9] -0.033 | ralimetinib 0.005 | [10] 0.011 | [11] 0.014 | [12] 0.009 | [13] 0.029 | [14] 0.02 | [15] 0.003 | [16] -0.033

FTH1 (UniProt P02794)
inactive: erlotinib -0.006 | [1] -0.066 | [2] -0.038 | [3] 0.041 | [4] -0.023 | [5] 0.002 | [6] 0.013 | [7] 0.032 | [8] 0.023 | IRAK-1-4 Inhibitor I -0.045 | ibrutinib 0.099 | [9] -0.035 | ralimetinib 0.001 | [10] -0.002 | [11] 0.004 | [12] -0.019 | [13] -0.015 | [14] 0.016 | [15] 0.071 | [16] 0.007

GABARAPL1 isoform 2 (UniProt Q9H0R8)
inactive: erlotinib 0.002 | [1] -0.104 | [2] 0.009 | [3] -0.075 | [4] -0.032 | [5] 0.022 | [6] -0.058 | [7] 0.048 | [8] 0.037 | IRAK-1-4 Inhibitor I 0.053 | ibrutinib 0.281 | [9] 0.024 | ralimetinib -0.012 | [10] -0.009 | [11] -0.023 | [12] -0.026 | [13] -0.034 | [14] 0.059 | [15] -0.052 | [16] -0.005

GATAD2A isoform 3 (UniProt Q86YP4)
inactive: erlotinib 0.012 | [1] -0.124 | [2] -0.003 | [3] -0.034 | [4] 0.003 | [5] -0.002 | [6] -0.035 | [7] -0.037 | [8] 0.034 | IRAK-1-4 Inhibitor I -0.016 | ibrutinib 0.017 | [9] 0.008 | ralimetinib 0.023 | [10] 0.01 | [11] 0.012 | [12] -0.004 | [13] 0.005 | [14] 0.01 | [15] 0.016 | [16] -0.005

GDI2 (UniProt P50395)
inactive: erlotinib -0.009 | [1] 0.038 | [2] -0.004 | [3] 0 | [4] -0.006 | [5] 0 | [6] -0.017 | [7] -0.008 | [8] 0.022 | IRAK-1-4 Inhibitor I 0 | ibrutinib -0.028 | [9] 0.001 | ralimetinib -0.018 | [10] 0.005 | [11] -0.005 | [12] -0.026 | [13] 0.008 | [14] -0.013 | [15] -0.009 | [16] 0.005

FRRS1 (UniProt Q6ZNA5)
inactive: erlotinib 0.055 | [1] -0.003 | [2] 0.096 | [3] 0.033 | [4] -0.065 | [5] -0.01 | [6] -0.021 | [7] 0.012 | [8] -0.006 | IRAK-1-4 Inhibitor I 0.038 | ibrutinib -0.028 | [9] 0.001 | ralimetinib -0.001 | [10] -0.05 | [11] -0.077 | [12] 0.138 | [13] -0.033 | [14] -0.013 | [15] 0 | [16] -0.056

GALK2 (UniProt Q01415)
inactive: erlotinib 0.025 | [1] 0.053 | [2] 0 | [3] -0.01 | [4] 0.013 | [5] 0.034 | [6] -0.01 | [7] -0.009 | [8] 0.023 | IRAK-1-4 Inhibitor I 0.023 | ibrutinib -0.022 | [9] -0.017 | ralimetinib -0.025 | [10] -0.023 | [11] -0.017 | [12] -0.057 | [13] -0.035 | [14] 0.016 | [15] -0.007 | [16] -0.03

From the supplement of paper PMC10849652
